Data: PubChem BioAssay AID720504 (National Center for Advancing Translational Sciences (NCATS), 2013)
The campaign covered roughly 360,000 compounds. About 10,000 (2.8%) were called active. Inconclusive means that the source gave no clear call. Such entries were picked first, then a sample of the others. The call rests on the fitted dose curve; in most records, active means well fitted inhibition curve with a large enough effect; inconclusive means small, poorly fitted or top-dose-only effect; inactive means flat fitted curve, though single readings scatter. Potencies beside an inconclusive call are fits to weak or partial responses and may not hold up.

The chains behind the UniProt entries cited, without tags or fusion partners.
UniProt P53350, whole entry, looked up: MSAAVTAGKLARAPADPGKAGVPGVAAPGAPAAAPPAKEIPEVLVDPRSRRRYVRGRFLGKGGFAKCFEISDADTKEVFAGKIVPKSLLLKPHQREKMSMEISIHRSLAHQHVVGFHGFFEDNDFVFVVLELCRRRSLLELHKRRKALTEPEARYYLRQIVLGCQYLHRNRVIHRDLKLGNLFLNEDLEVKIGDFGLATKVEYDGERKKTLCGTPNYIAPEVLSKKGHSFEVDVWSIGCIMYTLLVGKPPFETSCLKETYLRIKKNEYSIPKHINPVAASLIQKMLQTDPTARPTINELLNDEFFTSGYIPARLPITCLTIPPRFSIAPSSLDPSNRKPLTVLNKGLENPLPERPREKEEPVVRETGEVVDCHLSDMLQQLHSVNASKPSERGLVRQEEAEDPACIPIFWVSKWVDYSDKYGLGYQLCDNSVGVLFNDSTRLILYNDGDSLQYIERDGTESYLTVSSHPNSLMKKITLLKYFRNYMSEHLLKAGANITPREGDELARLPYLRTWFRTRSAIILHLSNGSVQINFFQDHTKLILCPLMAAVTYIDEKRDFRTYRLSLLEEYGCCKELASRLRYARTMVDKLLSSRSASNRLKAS

These compounds were tested against Serine/threonine-protein kinase PLK1 (Homo sapiens) (UniProt P53350) (assay: qHTS for Inhibitors of PLK1-PDB (polo-like kinase 1 - polo-box domain): Primary Screen). Conditions: Plk1 PBD binding of FITC phosphopeptide, fluorescence polarization.
Further: nearly all actives have a fitted effect of over 65% in size.
On the % scale 0 is the no-effect control and ±100 the full control effect; potency means the concentration at half of the fitted maximal effect.
Wherever max response, negative = inhibition is given: series mostly up to about 57 µM.

| Compound | max response, negative = inhibition | Potency |
| --- | --- | --- |
| Cc1cc(C(=O)CCl)c(C)n1-c1cccc([N+](=O)[O-])c1 | inconclusive: -31.9% [inhibitor] |  |
| COc1ccc(CN(CC2CCCO2)S(=O)(=O)c2ccc(-n3cnnn3)c(OC)c2)cc1 (stereo not drawn) | inactive: -9.15% |  |
| Oc1c(/C=C/C=C/C=Nc2ccccc2)sc(=S)n1Cc1ccccc1 |  | inconclusive: 8.44 µM [inhibitor, partial curve] |
| CCOC(=O)NCCOC(=O)Nc1ccc(Cl)cc1 |  | inconclusive: 7.52 µM [inhibitor, single point] |
| COc1ccc(C2=Nn3c(nnc3-c3ccncc3)SC2)cc1OC |  | inconclusive: 26.7 µM [inhibitor, single point] |
| Cc1ccc(C(C)C)c(OCc2n[nH]c(=S)o2)c1 |  | inconclusive: 26.7 µM [inhibitor, partial curve] |
| Cc1nnc(SCC(=O)Nc2sc3c(c2C#N)CCCCC3)n1N |  | inconclusive: 29.9 µM [inhibitor, partial curve] |
| CCN(CC)S(=O)(=O)c1ccc(N2CCOCC2)c(NS(=O)(=O)c2cc(C(C)(C)C)ccc2C)c1 |  | inconclusive: 23.8 µM [inhibitor, partial curve] |
| N#CC1(NC(=O)CSc2nnc(-c3ccccc3F)o2)CCCCC1 |  | inconclusive: 21.2 µM [inhibitor, single point] |
| O=C(Cc1ccc(S(=O)(=O)N2CCOCC2)s1)Nc1nc2c(s1)CCCC2 |  | inconclusive: 29.9 µM [inhibitor, single point] |
| CS(=O)(=O)c1ccc2nc(NC(=O)c3cccc(NS(=O)(=O)c4ccc(F)c(F)c4)c3)sc2c1 |  | inconclusive: 29.9 µM [inhibitor, partial curve] |
| O=C(NC(=S)N1CCCCC1)c1cccs1 | inactive: -4.13% |  |
| O=C(CCS(=O)(=O)c1ccc(Br)cc1)Nc1ccccn1 |  | inconclusive: 11.9 µM [inhibitor, partial curve] |
| O=C(Nc1ccc(C2=NCCN2)cc1)c1ccc(C(=O)Nc2ccc(C3=NCCN3)cc2)c(Cl)c1 | inactive: 11.4% |  |
| Cc1cccc(OCC(=O)Nc2ccc(C(=O)Nc3ccccc3C(=O)O)cc2)c1 | inactive: -8.8% |  |
| CCN(CC(=O)Nc1ccc2c(c1)OCCO2)C(=O)c1ccc([N+](=O)[O-])s1 |  | inconclusive: 23.8 µM [inhibitor, single point] |
| CCCC[C@H]1COCCS(=O)(=O)N1Cc1cccc(Cl)c1 |  | inconclusive: 26.7 µM [inhibitor, single point] |
| COC(=O)c1ccc2c(=O)n(NC(C)=O)c(=S)[nH]c2c1 | inactive: -9.68% |  |
| Cc1ccc(S(=O)(=O)N2[C@@H](c3ccc(F)cc3)C(C(=O)O)=CC[C@H]2c2cccc(Cl)c2)cc1 |  | inconclusive: 29.9 µM [inhibitor, single point] |
| Cc1ccccc1N(CC(=O)Nc1ccccc1C(=O)O)S(C)(=O)=O | inactive: -10% |  |
| S=c1[nH]c2cc3ccccc3cc2[nH]1 |  | active: 29.9 µM |
| C/C(=N\NS(=O)(=O)c1ccc(Cl)c([N+](=O)[O-])c1)c1ccc(C)o1 |  | inconclusive: 29.9 µM [inhibitor, partial curve] |

| Compound | max response, negative = inhibition | Potency |
| --- | --- | --- |
| CCOc1cc2c3c(c1)C1(Nc4ccccc4S1)C(=O)N3C(C)(C)CC2C (stereo not drawn) | inactive: -8.23% |  |
| Nc1nc(-c2cccc(NS(=O)(=O)c3ccccc3)c2)cs1 |  | inconclusive: 29.9 µM [inhibitor, single point] |
| CC1Cc2ccccc2N1C(=O)CSC1=NCCS1 (stereo not drawn) |  | inconclusive: 18.9 µM [inhibitor, partial curve] |
| Cc1c(C(=O)N2CCOCC2)c(S(=O)(=O)Nc2cccc(C#N)c2)c(C)n1C |  | inconclusive: 26.7 µM [inhibitor, partial curve] |
| Cc1cccc2cc(CN(Cc3cccnc3)C(=S)NCCCN(C)C)c(=O)[nH]c12 |  | active: 9.47 µM |
| CCOc1cc(/C=N/NC(=O)c2cccs2)cc([N+](=O)[O-])c1O |  | inconclusive: 21.2 µM [inhibitor, partial curve] |
| c1ccc(-c2nnc(-c3ccccn3)c(-c3ccccn3)n2)nc1 |  | inconclusive: 29.9 µM [inhibitor, single point] |
| O=C(NCc1ccc(Cl)cc1)c1cccnc1 |  | active: 23.8 µM |
| O=S(=O)(N/N=C/c1ccc(Cl)cc1)c1ccc(Cc2ncc(C(F)(F)F)cc2Cl)s1 |  | inconclusive: 29.9 µM [inhibitor, single point] |
| CCc1c(C)sc(NC(=O)Cn2nc(C(F)(F)F)c3c2CCCC3)c1C#N |  | active: 21.2 µM |
| CC(=O)c1ccc(C(=O)N(CCN(C)C)c2nc3c(Cl)cccc3s2)cc1 | inactive: -12.1% |  |
| COCCn1c(C)cc(C2=NNC(=NC(C)(C)C)SC2)c1C |  | inconclusive: 42.3 µM [inhibitor, partial curve] |
| Cn1c(=O)c(Nc2ccc(O)cc2)c2c3c(cccc31)C(=O)c1ccccc1-2 |  | inconclusive: 29.9 µM [inhibitor, partial curve] |
| CCOCCn1c(SCCCc2ccccc2)nc2c1c(=O)[nH]c(=O)n2C |  | inconclusive: 26.7 µM [inhibitor, single point] |
| C=CCn1c(SCc2ccc(C(=O)O)cc2)nc2sc(C)c(C)c2c1=O |  | inconclusive: 21.2 µM [inhibitor, single point] |
| COc1ccccc1COn1c(=O)c(-c2ccco2)[n+]([O-])c2ccccc21 |  | inconclusive: 10.6 µM [inhibitor, partial curve] |
| O=C(O)c1c[nH]c2cc(C(F)(F)F)ccc2c1=O | inactive: -2.68% |  |
| O=C(CSc1ccc2ccccc2n1)NCCCN1CCCC1=O |  | inconclusive: 23.8 µM [inhibitor, partial curve] |
| Cc1nc(CSc2ccc(Cl)cc2)cc(N2CCOCC2)n1 | inconclusive: -30.7% [inhibitor] |  |
| O=C(Oc1ccc(=O)[nH]n1)c1ccccc1 |  | inconclusive: 18.9 µM [inhibitor, partial curve] |
| O=S(=O)(c1ccc(NC(=S)NC2CC2)cc1)N1CCOCC1 |  | inconclusive: 33.6 µM [inhibitor, single point] |

3 compounds already listed, sorted by SMILES length, largest number first:

| Compound | max response, negative = inhibition | Potency |
| --- | --- | --- |
| CCN(CC)S(=O)(=O)c1ccc(N2CCOCC2)c(NS(=O)(=O)c2cc(C(C)(C)C)ccc2C)c1 |  | inconclusive: 23.8 µM [inhibitor, partial curve] |
| Cc1cccc(OCC(=O)Nc2ccc(C(=O)Nc3ccccc3C(=O)O)cc2)c1 | inactive: -8.8% |  |
| COc1ccc(C2=Nn3c(nnc3-c3ccncc3)SC2)cc1OC |  | inconclusive: 26.7 µM [inhibitor, single point] |
